# Earlier results in patent publication US20210163888A1, “INDUCTION OF MYELINATING OLIGODENDROCYTES IN HUMAN CORTICAL SPHEROIDS” (Case Western Reserve University, priority 2018, published 2021).
# Counter-ions that a name gives are not always drawn.
# Tested on: rodent oligodendrocyte generation and myelination
# Conditions: in vitro and in vivo; cited from earlier work
structure (smiles),measurement,value
"CN1CCC[C@@H]1CCO[C@](C)(c1ccccc1)c1ccc(Cl)cc1 [clemastine, Clemastine fumarate]",Stimulation of rodent oligodendrocyte generation and myelination,potent stimulators
